PubChem BioAssay AID1671190 (National Center for Advancing Translational Sciences (NCATS), 2021)
Screen size: about 580,000 compounds; about 6,100 (1.1%) were called active. The inconclusive results got no clear call from the source; some entries with a clear call stand among them for comparison. Calls follow the shape of the dose curve; as a rule, active = well fitted inhibition curve with a large enough effect; inconclusive = small, poorly fitted or top-dose-only effect, or another doubt; inactive = no such curve, though single readings can be large or run the other way. A potency beside an inconclusive call is a rough fit, not a confirmed value.

Protein sequences, listed by entry. Tags and fused reporters are not part of them.
UniProt P18054, whole entry, looked up: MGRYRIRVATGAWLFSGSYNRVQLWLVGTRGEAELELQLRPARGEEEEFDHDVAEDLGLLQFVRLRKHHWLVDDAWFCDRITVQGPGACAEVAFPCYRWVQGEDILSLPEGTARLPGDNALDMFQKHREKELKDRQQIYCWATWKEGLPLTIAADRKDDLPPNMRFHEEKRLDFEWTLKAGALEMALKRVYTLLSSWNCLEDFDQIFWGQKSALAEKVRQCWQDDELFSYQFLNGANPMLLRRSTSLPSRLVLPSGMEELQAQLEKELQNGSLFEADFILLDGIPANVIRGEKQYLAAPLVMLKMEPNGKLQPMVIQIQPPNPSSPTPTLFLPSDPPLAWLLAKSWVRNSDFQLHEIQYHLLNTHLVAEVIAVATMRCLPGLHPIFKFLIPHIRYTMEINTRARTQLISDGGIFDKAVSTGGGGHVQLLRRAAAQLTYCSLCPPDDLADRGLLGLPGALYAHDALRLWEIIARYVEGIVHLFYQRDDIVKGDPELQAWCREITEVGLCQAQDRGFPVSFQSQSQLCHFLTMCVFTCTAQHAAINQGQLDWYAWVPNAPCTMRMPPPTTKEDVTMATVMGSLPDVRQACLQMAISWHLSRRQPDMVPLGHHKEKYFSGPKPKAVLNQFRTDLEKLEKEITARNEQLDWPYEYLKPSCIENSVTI

Target: Polyunsaturated fatty acid lipoxygenase ALOX12 (Homo sapiens) (UniProt P18054)
Assay: Primary qHTS assay for inhibitors of human arachidonate 12S-lipoxygenase (ALOX12): Round 2
Settings: purified 12hLO, xylenol orange hydroperoxide absorbance; activity change, negative = inhibition: at 108 µM (top of the series) unless noted
How it was run: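 Hydroperoxide product was detected by ferrous iron/xylenol orange as the 573 to 405 nm absorbance ratio. Arachidonic acid at 40 uM (final) was turned over for 30 min at room temperature by 150 nM human 12hLO, pH 7.0 Hepes buffer, after 15 min compound preincubation.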
% is scaled to controls: 0 for no effect and ±100 for the full control effect; potency is read from the fitted curve at half-maximal effect.

Row | Structure (SMILES) | Potency | activity change, negative = inhibition
1 | Cc1[nH]c2ccccc2c1CCN(Cc1ccccn1)C(=S)NC(C)(C)C | inactive | 
2 | OCc1cc(CC2(NC3CCC(CO)CC3)COC2)no1 (stereo unspecified) | inactive | 
3 | Cc1nn2c(c1-c1ccccc1C(C)C)N([S+](=O)([O-])c1ccc(C(C)C)cc1)CCC2 | inconclusive: 63.1 µM [inhibitor, full curve, poor fit] | 
4 | OCCN(Cc1ccccc1)Cc1ccccc1F | inconclusive: 0.794 µM [inhibitor, full curve] | 
5 | CN(C)CCCc1cc(C(=O)Nc2ccc(-c3ccncc3)cc2)ccc1O | inconclusive: 31.6 µM [inhibitor, partial curve, poor fit] | 
6 | Cc1nc2c(=O)[nH]c3ccccc3c2o1 |  | inconclusive: -43.9% [inhibitor]
7 | Nc1nc(N)c2ncn(C3C=CC(CO)C3)c2n1 (stereo unspecified) | inconclusive: 44.7 µM [inhibitor, partial curve] | 
8 | Cc1cc(NC(=O)CSCC(=O)OCC(=O)c2ccc(Br)cc2)no1 | inconclusive: 50.1 µM [inhibitor, partial curve, poor fit] | 
9 | CCN(Cc1ccccc1)c1ccc(/C=N/NS(=O)(=O)c2ccc(C)c([N+](=O)[O-])c2)cc1 | inconclusive: 44.7 µM [inhibitor, partial curve, poor fit] | 
10 | Cc1ccc2nc(Nc3nc(CSc4nc5ccccc5s4)cc(=O)[nH]3)nc(C)c2c1 | inactive | 
11 | O=C(N1CCN(Cc2ccccc2)CC1)C(F)(F)C(F)(F)C(F)(F)C(F)(F)F | active: 28.2 µM | 
12 | CC(C)Cc1nn2c(=O)cc(COC(=O)c3cccc(NC(=O)c4cccs4)c3)nc2s1 | inactive | 
13 | COc1ccc(-c2nsc(NC(=O)COc3ccccc3OC)n2)cc1 | inconclusive: 50.1 µM [inhibitor, partial curve, poor fit] | 
14 | CCN1C(=O)CN(C(=O)C2CCCC2)CC12CCOCC2 | inactive | 
15 | COc1cc(-c2cc(C(=O)Nc3ccc(S(N)(=O)=O)cc3)c3ccccc3n2)cc(OC)c1OC | inactive | 
16 | Cc1cc(C)n2nc(C(=O)OC(C)C(=O)c3c[nH]c4ccccc34)nc2n1 (stereo unspecified) | inconclusive: 22.4 µM [inhibitor, partial curve, poor fit] | 
17 | Cc1ccc(-c2c(NC(=O)c3ccco3)oc3ccc(Cl)cc3c2=O)cc1 | inconclusive: 44.7 µM [inhibitor, partial curve, poor fit] | 
18 | O=c1c2c(nc3nc(CCc4ccccc4)[nH]n13)CCC2 | inconclusive: 28.2 µM [inhibitor, single point] | 
19 | C=CCNC(=O)NC(=O)CNc1cc(C(F)(F)F)ccc1NC1CCCCC1 | inconclusive: 70.8 µM [inhibitor, partial curve, poor fit] | 
20 | CC(=O)NC12CC3CC(C1)CC(C(=O)N1CCC(CCc4ccc(C)cc4)CC1)(C3)C2 | inactive | 
21 | Cc1ccccc1Cn1c(=O)n(CC2CCC(C(=O)N3CCC(C)CC3)CC2)c(=O)c2sccc21 (stereo unspecified) | inconclusive: 63.1 µM [inhibitor, partial curve, poor fit] | 

Taken from above:
Nc1nc(N)c2ncn(C3C=CC(CO)C3)c2n1 (stereo unspecified) | Potency: inconclusive: 44.7 µM [inhibitor, partial curve]
COc1ccc(-c2nsc(NC(=O)COc3ccccc3OC)n2)cc1 | Potency: inconclusive: 50.1 µM [inhibitor, partial curve, poor fit]

(next part)

Row | Structure (SMILES) | Potency | activity change, negative = inhibition
22 | COC(=O)CC1=NN(c2ccc(OC)cc2)C(=O)/C1=C\c1ccc(Cl)cc1 | inconclusive: 35.5 µM [inhibitor, partial curve, poor fit] | 
23 | Cc1cccc(N(C)C(=O)c2cnn(-c3ccccc3)c2C)c1 | inactive | 
24 | CCC1=C(OC(=O)N(CC)CC)N2C(=O)OC(=NCC(=O)OC)[C@]2(Cc2ccccc2)[C@H]2C1=CC[C@H]1C(=O)NC(=O)[C@H]12 | inconclusive: 35.5 µM [inhibitor, partial curve, poor fit] | 
25 | Cc1nc2cc(F)ccc2cc1C(=O)NC1CCC(C)CC1 (stereo unspecified) | inconclusive: 44.7 µM [inhibitor, partial curve, poor fit] | 
26 | Cc1ccccc1-c1cncnc1Nc1ccccc1 | inconclusive: 7.94 µM [inhibitor, partial curve, poor fit] | 
27 | CCCCn1c(=O)[nH]c(=O)c2c1nc(COC(=O)c1ccccc1C(F)(F)F)n2CC | inconclusive: 10 µM [inhibitor, full curve] | 
28 | COc1cc(F)ccc1-c1cn(C)c(=O)n2cc(COc3ccc(C(=O)O)cc3)nc12 | inconclusive: 25.1 µM [inhibitor, full curve] | 
29 | CS(=O)(=O)/C(C#N)=C\c1ccc(-c2ccccc2)cc1 | inconclusive: 79.4 µM [inhibitor, single point] | 
30 | NC(=O)COc1ccc(Cl)cc1CN1CCCC(CO)(CC2CC2)C1 (stereo unspecified) | inactive | 
31 | Cc1c(C(=O)N2CCC(C)CC2)c(S(=O)(=O)Nc2cccc(C#N)c2)c(C)n1C | inconclusive: 63.1 µM [inhibitor, partial curve, poor fit] | 
32 | COc1ccc(CN2CCCN(CC(=O)Nc3ccc(Br)cc3F)S2(=O)=O)cc1 | inconclusive: 126 µM [inhibitor, partial curve, poor fit] | 
33 | CC(C)(C)c1nnc2sc(-c3cc4ccccc4[nH]3)nn12 | inconclusive: 44.7 µM [inhibitor, partial curve, poor fit] | 
34 | COCCN1CN(S(=O)(=O)c2ccc(Cl)cc2)c2nc3ccccc3nc21 | inconclusive: 35.5 µM [inhibitor, partial curve, poor fit] | 
35 | Cc1ccc(C)c(N/C(N)=N/c2nc(C)cc(C)n2)c1 | inactive | 
36 | COc1cc(/C=C2\SC(=O)N(c3ccccc3Cl)C2=O)cc([N+](=O)[O-])c1O | inconclusive: 44.7 µM [inhibitor, partial curve, poor fit] | 
37 | CCC(CC)C(=O)Nc1nnc(S(=O)(=O)N(CC)c2ccc(OC)cc2)s1 | inconclusive: 126 µM [inhibitor, single point] | 
38 | CC(C)c1cccc(C(C)C)c1NC(=O)CNCc1ccccc1F | inactive | 
39 | Cc1cccc(-c2nc3cnccn3c2NCCC(=O)N2CCCCCC2)c1 | inactive | 
40 | CCOc1ccc(NC(=O)CC2Nc3cccc4cccc(c34)NC2=O)cc1 (stereo unspecified) | inconclusive: 79.4 µM [inhibitor, partial curve, poor fit] | 
41 | COc1cccc(-n2cc(CN(C)Cc3nc(Cc4cccc(F)c4)no3)cn2)c1 | inconclusive: 12.6 µM [inhibitor, full curve, poor fit] | 
